Reference: PubChem BioAssay AID248 (DTP/NCI, 2004)
The list shows only some results of the screen, not a fair sample: it is rich in T/C values a quarter to a half above the control, in often repeated tests (any T/C) and in doses without a T/C. Other doses and runs of a compound stand elsewhere. T/C: endpoint of the treated group in % of that of the vehicle group. Some entries give survivors of the animals treated and no T/C: the source holds a T/C of zero for them, seemingly a mark for toxic or unscored doses. Some doses without a T/C left all or most animals alive at the check, yet need not have been tolerated: the source hardly ever lists a survival T/C far under the control, and the zero likely stands for such cases as well. Survivors were counted at the toxicity check, usually on the fifth day, unless a day is given; later deaths do not show. Schedules are NCI's codes, taken here to give the interval after Q, in days (D) or hours (H), and the number of doses after X. Some doses were run more than once; the values are given in rising order. For survival time, this PubChem deposit counts one and a half times the control or more as active, and values a quarter to a half above the control carry no call in these data; other NCI protocols may use other cut-offs. Some schedule codes hold Z or #, which are not explained here.

System: L1210 leukemia ip in BDF1 mice, survival T/C
Experiment: NCI In Vivo Anticancer Drug Screen. Data for tumor model L1210 Leukemia (intraperitoneal) in B6D2F1 (BDF1) mice
Conditions: T/C endpoint: mean survival time, higher T/C = longer survival
[1] = dose: 400.0 mg/kg/injection, schedule: Q04DX002 (ip), vehicle: Klucel (hydroxypropylcellulose) (HPC)
[2] = dose: 400.0 mg/kg/injection, schedule: Q01DX009 (ip), vehicle: Klucel (hydroxypropylcellulose) (HPC)
[3] = dose: 400.0 mg/kg/injection, schedule: Q04DX003 (ip), vehicle: saline with Tween-80
[4] = dose: 93.0 mg/kg/injection, schedule: Q01DX001 (ip), vehicle: carboxymethylcellulose (CMC)
[5] = dose: 187.0 mg/kg/injection, schedule: Q01DX001 (ip), vehicle: carboxymethylcellulose (CMC)
[6] = dose: 375.0 mg/kg/injection, schedule: Q01DX001 (ip), vehicle: carboxymethylcellulose (CMC)
[7] = dose: 200.0 mg/kg/injection, schedule: Q04DX003 (ip), vehicle: saline
[8] = dose: 400.0 mg/kg/injection, schedule: Q04DX003 (ip), vehicle: saline
[9] = dose: 200.0 mg/kg/injection, schedule: Q01DX009 (ip), vehicle: saline
[10] = dose: 400.0 mg/kg/injection, schedule: Q04DX003 (ip), vehicle: Klucel (hydroxypropylcellulose) (HPC)

## CC(C)C(C=NCC(CCN(C)C)(c1ccc2ccccc2c1)C(C)C)(CCN(C)C)c1ccc2ccccc2c1 (stereo not drawn)
dose: 50.0 mg/kg/injection, schedule: Q04DX002 (ip), vehicle: saline + alcohol
  survivor count: 0 of 3
dose: 100.0 mg/kg/injection, schedule: Q04DX002 (ip), vehicle: saline + alcohol
  survivor count: 0 of 3
dose: 200.0 mg/kg/injection, schedule: Q04DX002 (ip), vehicle: saline + alcohol
  survivor count: 0 of 3
dose: 400.0 mg/kg/injection, schedule: Q04DX002 (ip), vehicle: saline + alcohol
  survivor count: 0 of 3

## NNC(=O)CNc1ccc(F)cc1F
[1]
  survivor count: 0 of 3

## CC(C)C(=O)CC(=O)C(C)C.CC(C)C(=O)CC(=O)C(C)C.[Cu]
dose: 100.0 mg/kg/injection, schedule: Q01DX001 (ip), vehicle: saline
  survivor count: 2 of 6
dose: 200.0 mg/kg/injection, schedule: Q01DX001 (ip), vehicle: saline
  survivor count: 1 of 6
dose: 400.0 mg/kg/injection, schedule: Q01DX001 (ip), vehicle: saline
  survivor count: 1 of 6

## CCc1ccccc1NC(=O)Nc1nccs1
[2]
  survivor count: 2 of 6

## O=C(O)/C=C/C(=O)NNC(=O)/C=C/C(=O)O
[3]
  survivor count: 4 of 6

## O=NN(CCCl)C(=O)Nc1cccc([N+](=O)[O-])c1
dose: 8.0 mg/kg/injection, schedule: Q01DX001 (ip), vehicle: carboxymethylcellulose (CMC)
  T/C: 143 % of control
[4]
  survivor count: 4 of 6
[5]
  survivor count: 0 of 6
[6]
  survivor count: 0 of 6

## Nc1cc(Cl)cc2c1-c1c(Cl)cc(Cl)cc1C2O (stereo not drawn)
[2]
  survivor count: 3 of 6

## COc1ccc2[nH]c(-c3ccccc3)c(-c3ccccc3)c2c1
dose: 200.0 mg/kg/injection, schedule: Q01DX009 (ip), vehicle: saline with Tween-80
  survivor count: 5 of 6
dose: 400.0 mg/kg/injection, schedule: Q01DX009 (ip), vehicle: saline with Tween-80
  survivor count: 5 of 6

## CNCCCN(C)CCCNC
[7]
  survivor count: 5 of 6
[8]
  survivor count: 1 of 6

## NNC(=O)OCCO
dose: 12.5 mg/kg/injection, schedule: Q01DX009 (ip), vehicle: saline
  survivor count: 0 of 6
dose: 100.0 mg/kg/injection, schedule: Q01DX009 (ip), vehicle: saline
  survivor count: 6 of 6
[9]
  survivor count: 1 of 6
dose: 400.0 mg/kg/injection, schedule: Q01DX009 (ip), vehicle: saline
  survivor count: 0 of 6

## OC1(c2ccccc2)c2cscc2C(O)(c2ccccc2)c2c(Cl)sc(Cl)c21 (stereo not drawn)
dose: 200.0 mg/kg/injection, schedule: Q01DX001 (ip), vehicle: saline with Tween-80
  survivor count: 3 of 3

## C[N+](C)(C)C1CC2CC1C2 (stereo not drawn)
dose: 150.0 mg/kg/injection, schedule: Q01DX001 (ip), vehicle: saline
  survivor count: 2 of 6
dose: 300.0 mg/kg/injection, schedule: Q01DX001 (ip), vehicle: saline
  survivor count: 0 of 6

## O=c1sc(=S)[nH]c2ccccc12
[10]
  survivor count: 3 of 6

## O=C1C(=O)C(c2ccccc2)(c2ccccc2)c2cc(-c3ccccc3)c(-c3ccccc3)cc21
dose: 100.0 mg/kg/injection, schedule: Q04DX003 (ip), vehicle: saline with Tween-80
  survivor count: 3 of 3
[3]
  survivor count: 3 of 3

## O=c1cc(CO)[nH]cc1O
dose: 173.0 mg/kg/injection, schedule: Q01DX Z (ip), vehicle: carboxymethylcellulose (CMC)
  T/C: 132 % of control
dose: 175.0 mg/kg/injection, schedule: Q01DX Z (ip), vehicle: carboxymethylcellulose (CMC)
  T/C: 142 % of control
dose: 175.0 mg/kg/injection, schedule: Q01DX Z (ip), vehicle: saline
  T/C: 142 % of control
dose: 200.0 mg/kg/injection, schedule: Q01DX009 (ip), vehicle: Klucel (hydroxypropylcellulose) (HPC)
  T/C: 130 % of control
[9]
  T/C: 128 % of control
dose: 200.0 mg/kg/injection, schedule: Q01DX015 (ip), vehicle: carboxymethylcellulose (CMC)
  T/C: 127 % of control
dose: 263.0 mg/kg/injection, schedule: Q01DX Z (ip), vehicle: carboxymethylcellulose (CMC)
  T/C: 134 and 142 % of control
dose: 266.0 mg/kg/injection, schedule: Q01DX009 (ip), vehicle: Klucel (hydroxypropylcellulose) (HPC)
  T/C: 140 % of control
dose: 393.0 mg/kg/injection, schedule: Q01DX Z (ip), vehicle: carboxymethylcellulose (CMC)
  T/C: 134 % of control
[2]
  T/C: 134 and 148 % of control
dose: 400.0 mg/kg/injection, schedule: Q01DX015 (ip), vehicle: carboxymethylcellulose (CMC)
  T/C: 125 % of control
dose: 600.0 mg/kg/injection, schedule: Q01DX009 (ip), vehicle: Klucel (hydroxypropylcellulose) (HPC)
  T/C: 126 % of control

## Cn1c(=O)c2[nH]cnc2n(C)c1=O (tested in a mixture with another compound)
[3]
  survivor count: 4 of 6

## N#CC(C#N)=NNc1cccc(Cl)c1
dose: 100.0 mg/kg/injection, schedule: Q04DX003 (ip), vehicle: Klucel (hydroxypropylcellulose) (HPC)
  survivor count: 1 of 6

## NC(N)=NCC(CCN1CCCCC1)c1cccc2ccccc12 (stereo not drawn)
dose: 25.0 mg/kg/injection, schedule: Q04DX002 (ip), vehicle: saline
  survivor count: 3 of 3
dose: 50.0 mg/kg/injection, schedule: Q04DX002 (ip), vehicle: saline
  survivor count: 2 of 3
dose: 100.0 mg/kg/injection, schedule: Q04DX002 (ip), vehicle: saline
  survivor count: 0 of 3

## ClCCCNCc1ccccc1
[7]
  survivor count: 2 of 6
[8]
  survivor count: 0 of 6

## CCCCCCCCCCCCC1CC(=O)OC1=O (stereo not drawn)
[2]
  survivor count: 2 of 6
[10]
  survivor count: 0 of 6

## O=NN(CCCl)C(=O)Nc1ccc(CC(=O)O)cc1
dose: 40.0 mg/kg/injection, schedule: Q01DX001 (ip), vehicle: carboxymethylcellulose (CMC)
  survivor count: 5 of 6
dose: 60.0 mg/kg/injection, schedule: Q01DX001 (ip), vehicle: carboxymethylcellulose (CMC)
  survivor count: 4 of 6
[4]
  survivor count: 0 of 6
[5]
  survivor count: 0 of 6
[6]
  survivor count: 0 of 6

## Nc1ccc(N=Nc2ccccc2)cc1
dose: 100.0 mg/kg/injection, schedule: Q04DX002 (ip), vehicle: Klucel (hydroxypropylcellulose) (HPC)
  survivor count: 1 of 3

## CN(C)C(=S)SCCC(=O)O
[1]
  survivor count: 0 of 3

## C(=NC(c1ccccc1)(c1ccccc1)c1ccccc1)=NC(c1ccccc1)(c1ccccc1)c1ccccc1
dose: 100.0 mg/kg/injection, schedule: Q01DX009 (ip), vehicle: gum acacia
  survivor count: 5 of 5 and 6 of 6
